Results as given in the supplement of paper PMC12823440, “Inhibitors supercharge kinase turnover through native proteolytic circuits” (Nature, 2025).
This is one part of the list. Hit calls seldom repeat between salt and free forms of one compound.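 Kinases were expressed as nanoluciferase fusions in K562 cells and luminescence was read every 4 h between 2 and 18 h as percent of control, DMSO set to 100% and a positive control to 0%. A time point counts as decreased when the signal drops significantly (2 sigma). The hit call is the authors' own, does not follow from the count of time points alone, and its rule is not shown.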

Amino acid sequences for entries named in this document (tags omitted). A change or cut given only in a name is not applied to a line headed by its entry.
UniProt P49840: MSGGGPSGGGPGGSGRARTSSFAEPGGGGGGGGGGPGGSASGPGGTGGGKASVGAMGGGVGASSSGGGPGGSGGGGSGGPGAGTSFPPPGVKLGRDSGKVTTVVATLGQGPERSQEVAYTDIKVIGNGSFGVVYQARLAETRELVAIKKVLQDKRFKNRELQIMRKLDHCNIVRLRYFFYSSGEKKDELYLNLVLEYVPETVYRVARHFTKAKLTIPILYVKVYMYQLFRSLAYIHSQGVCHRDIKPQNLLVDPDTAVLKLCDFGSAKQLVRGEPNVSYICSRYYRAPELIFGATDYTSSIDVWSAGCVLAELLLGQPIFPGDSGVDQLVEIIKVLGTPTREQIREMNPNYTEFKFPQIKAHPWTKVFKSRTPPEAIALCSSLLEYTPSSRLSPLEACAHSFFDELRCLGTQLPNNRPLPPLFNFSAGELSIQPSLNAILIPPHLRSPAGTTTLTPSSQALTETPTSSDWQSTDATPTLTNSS

The compounds below were run against GSK3A (UniProt P49840) (assay: kinase-Nluc reporter destabilization hit call (1 = scored as downregulated) (binary); higher = compound decreases kinase abundance). Settings: K562; 2-18 h.

Row | SMILES | kinase-Nluc reporter destabilization hit call
1 | Cc1ccccc1-n1c(Cn2cnc3c(N)ncnc32)nc2cccc(C)c2c1=O (10 µM) | inactive: 0
2 | C=C[C@H]1CN2CC[C@]3(C(=O)Nc4ccccc43)[C@@H]2C[C@@H]1/C(=C\OC)C(=O)OC [Corynoxeine] (2 µM) | inactive: 0
3 | O=C1C=CC[C@@H]2[C@H]3CCCN4CCC[C@@H](CN12)[C@@H]34 [Sophocarpine (monohydrate)] (2.5 µM) | inactive: 0
4 | O=c1ccc2cc(O[C@@H]3O[C@H](CO)[C@@H](O)[C@H](O)[C@H]3O)c(O)cc2o1 [Esculin] (10 µM) | inactive: 0
5 | O=c1[nH]c2ccccc2n1C1CCN(CCCC(c2ccc(F)cc2)c2ccc(F)cc2)CC1 [Pimozide] (2.5 µM) | inactive: 0
6 | C[C@@H]1CC[C@H]2[C@@H](C)C(=O)O[C@@H]3O[C@@]4(C)CC[C@@H]1[C@]32OO4 [Artemisinin] (10 µM) | inactive: 0
7 | COc1ccc2c(c1OC)C(OC)N(C)c1c-2ccc2cc3c(cc12)OCO3 (stereo not drawn) [Angoline] (10 µM) | inactive: 0
8 | C[C@H]1CC[C@]2(NC1)O[C@H]1C[C@H]3[C@@H]4CC[C@H]5C[C@@H](O[C@@H]6O[C@H](CO)[C@H](O[C@@H]7O[C@H](CO)[C@@H](O)[C@H](O[C@@H]8OC[C@@H](O)[C@H](O)[C@H]8O)[C@H]7O[C@@H]7O[C@H](CO)[C@@H](O)[C@H](O)[C@H]7O)[C@H](O)[C@H]6O)CC[C@]5(C)[C@H]4CC[C@]3(C)[C@H]1[C@@H]2C [Tomatine] (2.5 µM) | inactive: 0
9 | CN(C)C(=O)c1ccc(Cn2c(C(=O)O)cc3c(Br)cc(Sc4ccc(Cl)c(Cl)c4)cc32)cc1 [Rheb inhibitor NR1] (10 µM) | inactive: 0
10 | COc1ccc(/C=C/c2cc(OC)c(OC)c(OC)c2)cc1 (2.5 µM) | inactive: 0
11 | C/C(O)=C(\C#N)C(=O)Nc1cc(Br)ccc1Br (10 µM) | inactive: 0
12 | Cc1n[nH]cc1-c1cc2nc([C@@H]3CC4CCN3CC4)[nH]c(=O)c2s1 [Simurosertib] (2.5 µM) | inactive: 0
13 | O=c1[nH]c2ccccc2n1C1CCN(Cc2ccc(-c3[nH]c4cc5ncnc5cc4nc3-c3ccccc3)cc2)CC1 [AKT inhibitor VIII] (2.5 µM) | inactive: 0
14 | CCOC(=O)c1c(/C(C#N)=C\N)c2ccc(Cl)c(Cl)c2n1C (10 µM) | inactive: 0
15 | O=C(N[C@@H](COc1ccc2[nH]c(=O)[nH]c2c1)c1ccccc1)c1cccn(Cc2ccc(F)c(F)c2)c1=O (2.5 µM) | inactive: 0
16 | CC1=C[C@]23C(=O)[C@@H](C=C(CO)[C@@H](O)[C@]2(O)[C@H]1O)[C@H]1[C@@H](C[C@H]3C)C1(C)C [Ingenol] (10 µM) | inactive: 0
17 | N#CC(C#N)=NNc1cccc(Cl)c1 (2.5 µM) | inactive: 0
18 | CC(=O)c1c(O)c(C)c(O)c(Cc2c(O)c3c(c(C(=O)/C=C/c4ccccc4)c2O)OC(C)(C)C=C3)c1O [Rottlerin] (2 µM) | inactive: 0
19 | CCCS(=O)(=O)Nc1ccc(F)c(-n2cc(-c3cncnc3)c3nc(N(C)C4CCN(CC)CC4)ccc32)c1F (2 µM) | inactive: 0
20 | O=[N+]([O-])/C=C/c1ccc2c(c1)OCO2 (2.5 µM) | inactive: 0
21 | CC(=O)O[C@H]1[C@H]2[C@@H](OC(=O)Cc3ccccc3)[C@@H](C)C[C@]2(OC(C)=O)C(=O)/C(C)=C/[C@@H]2[C@H](CC[C@@]13CO3)C2(C)C [Euphorbiasteroid] (10 µM) | inactive: 0
22 | Cc1[nH]ncc1-c1cc2nc([C@H]3CC4CCN3CC4)[nH]c(=O)c2s1 [(R)-Simurosertib] (10 µM) | inactive: 0
23 | N#CC(C#N)=Cc1ccc(O)c(O)c1 [Tyrphostin 23] (10 µM) | inactive: 0
24 | CC1C(=O)OC2C(O)C34C5OC(=O)C3(OC3OC(=O)C(O)C34C(C(C)(C)C)C5O)C12O (stereo not drawn) [Ginkgolide C] (10 µM) | inactive: 0
25 | COc1ccc2c(c1)/C(=C/c1cnc[nH]1)C(=O)N2 (2.5 µM) | inactive: 0
26 | C[S+]([O-])/C=C/CCN=C=S (stereo not drawn) [Sulforaphene] (10 µM) | inactive: 0
27 | N#CC(C#N)=Cc1ccc([N+](=O)[O-])c(O)c1 (10 µM) | inactive: 0
28 | Cn1cc(C2=C(c3cn(C4CCN(Cc5ccccn5)CC4)c4ccccc34)C(=O)NC2=O)c2ccccc21 [Enzastaurin] (10 µM) | inactive: 0
29 | O=C(/C=C/c1ccccc1)OC[C@H]1O[C@@H](O[C@@H]2OC=C[C@H]3[C@H](O)[C@@H]4O[C@]4(CO)[C@@H]23)[C@H](O)[C@@H](O)[C@@H]1O [Picroside I] (10 µM) | inactive: 0

What follows are compounds tested against HER2 (UniProt P04626) in the same assay as above. Settings: K562; 2-18 h.

Row | SMILES | kinase-Nluc reporter destabilization hit call
30 | Cc1ccccc1-n1c(Cn2cnc3c(N)ncnc32)nc2cccc(C)c2c1=O (10 µM) | inactive: 0
31 | C=C[C@H]1CN2CC[C@]3(C(=O)Nc4ccccc43)[C@@H]2C[C@@H]1/C(=C\OC)C(=O)OC [Corynoxeine] (2 µM) | inactive: 0
32 | O=C1C=CC[C@@H]2[C@H]3CCCN4CCC[C@@H](CN12)[C@@H]34 [Sophocarpine (monohydrate)] (2.5 µM) | inactive: 0
33 | O=c1ccc2cc(O[C@@H]3O[C@H](CO)[C@@H](O)[C@H](O)[C@H]3O)c(O)cc2o1 [Esculin] (10 µM) | inactive: 0
34 | O=c1[nH]c2ccccc2n1C1CCN(CCCC(c2ccc(F)cc2)c2ccc(F)cc2)CC1 [Pimozide] (2.5 µM) | inactive: 0
35 | C[C@@H]1CC[C@H]2[C@@H](C)C(=O)O[C@@H]3O[C@@]4(C)CC[C@@H]1[C@]32OO4 [Artemisinin] (10 µM) | inactive: 0
36 | COc1ccc2c(c1OC)C(OC)N(C)c1c-2ccc2cc3c(cc12)OCO3 (stereo not drawn) [Angoline] (10 µM) | inactive: 0
37 | C[C@H]1CC[C@]2(NC1)O[C@H]1C[C@H]3[C@@H]4CC[C@H]5C[C@@H](O[C@@H]6O[C@H](CO)[C@H](O[C@@H]7O[C@H](CO)[C@@H](O)[C@H](O[C@@H]8OC[C@@H](O)[C@H](O)[C@H]8O)[C@H]7O[C@@H]7O[C@H](CO)[C@@H](O)[C@H](O)[C@H]7O)[C@H](O)[C@H]6O)CC[C@]5(C)[C@H]4CC[C@]3(C)[C@H]1[C@@H]2C [Tomatine] (2.5 µM) | inactive: 0
38 | CN(C)C(=O)c1ccc(Cn2c(C(=O)O)cc3c(Br)cc(Sc4ccc(Cl)c(Cl)c4)cc32)cc1 [Rheb inhibitor NR1] (10 µM) | inactive: 0
39 | COc1ccc(/C=C/c2cc(OC)c(OC)c(OC)c2)cc1 (2.5 µM) | inactive: 0
40 | C/C(O)=C(\C#N)C(=O)Nc1cc(Br)ccc1Br (10 µM) | inactive: 0
41 | Cc1n[nH]cc1-c1cc2nc([C@@H]3CC4CCN3CC4)[nH]c(=O)c2s1 [Simurosertib] (2.5 µM) | inactive: 0
42 | O=c1[nH]c2ccccc2n1C1CCN(Cc2ccc(-c3[nH]c4cc5ncnc5cc4nc3-c3ccccc3)cc2)CC1 [AKT inhibitor VIII] (2.5 µM) | inactive: 0
43 | CCOC(=O)c1c(/C(C#N)=C\N)c2ccc(Cl)c(Cl)c2n1C (10 µM) | inactive: 0
44 | O=C(N[C@@H](COc1ccc2[nH]c(=O)[nH]c2c1)c1ccccc1)c1cccn(Cc2ccc(F)c(F)c2)c1=O (2.5 µM) | inactive: 0
45 | CC1=C[C@]23C(=O)[C@@H](C=C(CO)[C@@H](O)[C@]2(O)[C@H]1O)[C@H]1[C@@H](C[C@H]3C)C1(C)C [Ingenol] (10 µM) | inactive: 0
46 | N#CC(C#N)=NNc1cccc(Cl)c1 (2.5 µM) | inactive: 0
47 | CC(=O)c1c(O)c(C)c(O)c(Cc2c(O)c3c(c(C(=O)/C=C/c4ccccc4)c2O)OC(C)(C)C=C3)c1O [Rottlerin] (2 µM) | inactive: 0
48 | CCCS(=O)(=O)Nc1ccc(F)c(-n2cc(-c3cncnc3)c3nc(N(C)C4CCN(CC)CC4)ccc32)c1F (2 µM) | inactive: 0
49 | O=[N+]([O-])/C=C/c1ccc2c(c1)OCO2 (2.5 µM) | inactive: 0
50 | CC(=O)O[C@H]1[C@H]2[C@@H](OC(=O)Cc3ccccc3)[C@@H](C)C[C@]2(OC(C)=O)C(=O)/C(C)=C/[C@@H]2[C@H](CC[C@@]13CO3)C2(C)C [Euphorbiasteroid] (10 µM) | inactive: 0
51 | Cc1[nH]ncc1-c1cc2nc([C@H]3CC4CCN3CC4)[nH]c(=O)c2s1 [(R)-Simurosertib] (10 µM) | inactive: 0
52 | N#CC(C#N)=Cc1ccc(O)c(O)c1 [Tyrphostin 23] (10 µM) | inactive: 0
53 | CC1C(=O)OC2C(O)C34C5OC(=O)C3(OC3OC(=O)C(O)C34C(C(C)(C)C)C5O)C12O (stereo not drawn) [Ginkgolide C] (10 µM) | inactive: 0
54 | COc1ccc2c(c1)/C(=C/c1cnc[nH]1)C(=O)N2 (2.5 µM) | inactive: 0
55 | C[S+]([O-])/C=C/CCN=C=S (stereo not drawn) [Sulforaphene] (10 µM) | inactive: 0
56 | N#CC(C#N)=Cc1ccc([N+](=O)[O-])c(O)c1 (10 µM) | inactive: 0
57 | Cn1cc(C2=C(c3cn(C4CCN(Cc5ccccn5)CC4)c4ccccc34)C(=O)NC2=O)c2ccccc21 [Enzastaurin] (10 µM) | inactive: 0
58 | O=C(/C=C/c1ccccc1)OC[C@H]1O[C@@H](O[C@@H]2OC=C[C@H]3[C@H](O)[C@@H]4O[C@]4(CO)[C@@H]23)[C@H](O)[C@@H](O)[C@@H]1O [Picroside I] (10 µM) | inactive: 0
